From the supplement of paper PMC8728848
The list shows a part of the results.

Key:
Assay in all cases: glycan array binding signal (z-score within array); higher = stronger binding
Details in all cases: glycan notation: IUPAC condensed, linker removed
[1] = target: Fuc(a1-3)[Gal(b1-4)]GlcNAc(b1-3)Gal(b1-4)[Fuc(a1-3)]GlcNAc
In short: (§1)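 The binding signal is a Z-score computed within each array. Data were drawn from 3228 arrays in the Consortium for Functional Glycomics database, restricted to those with a known protein sequence. Scores were averaged over arrays of the same protein sequence at different concentrations or buffers, and over linkers, and negative values can be taken as non-binding.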

[2] = target: Fuc(a1-3)[Gal(b1-4)]GlcNAc(b1-3)Gal(b1-4)[Fuc(a1-3)]GlcNAc(b1-3)Gal(b1-4)[Fuc(a1-3)]GlcNAc
In short: as §1

[3] = target: Fuc(a1-3)[Gal(b1-4)]GlcNAc(b1-3)GalNAc
In short: as §1

[4] = target: Fuc(a1-3)[Gal(b1-4)]GlcNAc(b1-6)GalNAc
In short: as §1

[5] = target: Fuc(a1-3)[Gal(b1-4)]GlcNAc(b1-6)[Gal(b1-3)GlcNAc(b1-3)]Gal(b1-4)Glc
In short: as §1

[6] = target: Fuc(a1-3)[Gal(b1-4)]GlcNAc6S
In short: as §1

[7] = target: Fuc(a1-3)[Gal3S(b1-4)]Glc
In short: as §1

[8] = target: Fuc(a1-3)[Gal3S(b1-4)]GlcNAc
In short: as §1

[9] = target: Fuc(a1-3)[Gal3S(b1-4)]GlcNAc6S
In short: as §1

[10] = target: Fuc(a1-3)[GalNAc(b1-4)]GlcNAc
In short: as §1

[11] = target: Fuc(a1-3)[GalNAc(b1-4)]GlcNAc6S
In short: as §1

Fuc(a1-4)GlcNAc = target: Fuc(a1-4)GlcNAc
In short: as §1

Fuc(b1-3)GlcNAc = target: Fuc(b1-3)GlcNAc
In short: as §1

Gal(a1-2)Gal = target: Gal(a1-2)Gal
In short: as §1

Gal(a1-3)Gal = target: Gal(a1-3)Gal
In short: as §1

Gal(a1-3)Gal(b1-3)GlcNAc = target: Gal(a1-3)Gal(b1-3)GlcNAc
In short: as §1

[12] = target: Gal(a1-3)Gal(b1-3)GlcNAc(b1-2)Man
In short: as §1

[13] = target: Gal(a1-3)Gal(b1-3)GlcNAc(b1-2)Man(a1-3)[Gal(a1-3)Gal(b1-3)GlcNAc(b1-2)Man(a1-6)]Man(b1-4)GlcNAc(b1-4)GlcNAc
In short: as §1

[14] = target: Gal(a1-3)Gal(b1-3)GlcNAc(b1-3)GalNAc
In short: as §1

[15] = target: Gal(a1-3)Gal(b1-3)GlcNAc(b1-6)GalNAc
In short: as §1

[16] = target: Gal(a1-3)Gal(b1-3)[Fuc(a1-4)]GlcNAc(b1-2)Man(a1-3)[Gal(a1-3)Gal(b1-3)[Fuc(a1-4)]GlcNAc(b1-2)Man(a1-6)]Man(b1-4)GlcNAc(b1-4)GlcNAc
In short: as §1

Gal(a1-3)Gal(b1-4)Glc = target: Gal(a1-3)Gal(b1-4)Glc
In short: as §1

Gal(a1-3)Gal(b1-4)GlcNAc = target: Gal(a1-3)Gal(b1-4)GlcNAc
In short: as §1

[17] = target: Gal(a1-3)Gal(b1-4)GlcNAc(b1-2)Man
In short: as §1

[18] = target: Gal(a1-3)Gal(b1-4)GlcNAc(b1-2)Man(a1-3)[Gal(a1-3)Gal(b1-4)GlcNAc(b1-2)Man(a1-6)]Man(b1-4)GlcNAc(b1-4)GlcNAc
In short: as §1

[19] = target: Gal(a1-3)Gal(b1-4)GlcNAc(b1-3)GalNAc
In short: as §1

[20] = target: Gal(a1-3)Gal(b1-4)GlcNAc(b1-6)GalNAc
In short: as §1

[21] = target: Gal(a1-3)Gal(b1-4)[Fuc(a1-3)]GlcNAc
In short: as §1

[22] = target: Gal(a1-3)Gal(b1-4)[Fuc(a1-3)]GlcNAc(b1-2)Man(a1-3)[Gal(a1-3)Gal(b1-4)[Fuc(a1-3)]GlcNAc(b1-2)Man(a1-6)]Man(b1-4)GlcNAc(b1-4)GlcNAc
In short: as §1

Gal(a1-3)GalNAc = target: Gal(a1-3)GalNAc
In short: as §1

[23] = target: Gal(a1-3)[Gal(a1-4)]Gal(b1-4)GlcNAc
In short: as §1

[24] = target: Gal(a1-4)Gal(b1-3)GlcNAc(b1-2)Man(a1-3)[Gal(a1-4)Gal(b1-3)GlcNAc(b1-2)Man(a1-6)]Man(b1-4)GlcNAc(b1-4)GlcNAc
In short: as §1

Gal(a1-4)Gal(b1-4)Glc = target: Gal(a1-4)Gal(b1-4)Glc
In short: as §1

Gal(a1-4)Gal(b1-4)GlcNAc = target: Gal(a1-4)Gal(b1-4)GlcNAc
In short: as §1

[25] = target: Gal(a1-4)Gal(b1-4)GlcNAc(b1-2)Man(a1-3)[Gal(a1-4)Gal(b1-4)GlcNAc(b1-2)Man(a1-6)]Man(b1-4)GlcNAc(b1-4)GlcNAc
In short: as §1

[26] = target: Gal(a1-4)Gal(b1-4)GlcNAc(b1-3)Gal(b1-4)Glc
In short: as §1

Gal(a1-4)GlcNAc = target: Gal(a1-4)GlcNAc
In short: as §1

Gal(a1-6)Glc = target: Gal(a1-6)Glc
In short: as §1

B1: SJCP1084 (Schistosoma japonicum) (protein)
chain: MRIINLVIISTALLLINLLQTKSQANGEDTKNGTPDDPGLTKSTELKVEVQALLKDKKTNMRVKWNENLLDNTKPEYHNLRDEACELLLQIVRSVVPLSQDDGECKDVTFTKYVVGTKDGAVNVKLTITFKDSVAINQKPMDLKLKLENDFKNLQSESTLKATKPTFTVKVEKRLIPISKPQTTPPTTAKNDASKENVGDIGGEDSTVPTAAPATAASANEEKDEGDKDNKDSQHPNVLTSNVNDRNLIIALVALMILAIGVALTAAVKQR
glycan array binding signal (z-score) [1]: -0.624
glycan array binding signal (z-score) [2]: 0.4
glycan array binding signal (z-score) [3]: -0.157
glycan array binding signal (z-score) [4]: -0.123
glycan array binding signal (z-score) [5]: -0.702
glycan array binding signal (z-score) [6]: -0.293
glycan array binding signal (z-score) [7]: -0.309
glycan array binding signal (z-score) [8]: -1.01
glycan array binding signal (z-score) [9]: -0.255
glycan array binding signal (z-score) [10]: 2.05
glycan array binding signal (z-score) [11]: -0.057
glycan array binding signal (z-score) (Fuc(a1-4)GlcNAc): 0.003
glycan array binding signal (z-score) (Fuc(b1-3)GlcNAc): -0.731
glycan array binding signal (z-score) (Gal(a1-2)Gal): 1.02
glycan array binding signal (z-score) (Gal(a1-3)Gal): 0.743
glycan array binding signal (z-score) (Gal(a1-3)Gal(b1-3)GlcNAc): 0.63
glycan array binding signal (z-score) [12]: -0.775
glycan array binding signal (z-score) [13]: -0.595
glycan array binding signal (z-score) [14]: -0.633
glycan array binding signal (z-score) [15]: -0.974
glycan array binding signal (z-score) [16]: -0.179
glycan array binding signal (z-score) (Gal(a1-3)Gal(b1-4)Glc): -0.352
glycan array binding signal (z-score) (Gal(a1-3)Gal(b1-4)GlcNAc): -0.447
glycan array binding signal (z-score) [17]: -0.709
glycan array binding signal (z-score) [18]: 0.448
glycan array binding signal (z-score) [19]: -0.457
glycan array binding signal (z-score) [20]: -0.882
glycan array binding signal (z-score) [21]: -0.073
glycan array binding signal (z-score) [22]: -0.203
glycan array binding signal (z-score) (Gal(a1-3)GalNAc): -0.418
glycan array binding signal (z-score) [23]: 2
glycan array binding signal (z-score) [24]: 3.06
glycan array binding signal (z-score) (Gal(a1-4)Gal(b1-4)Glc): -0.509
glycan array binding signal (z-score) (Gal(a1-4)Gal(b1-4)GlcNAc): 0.984
glycan array binding signal (z-score) [25]: 1.42
glycan array binding signal (z-score) [26]: -0.643
glycan array binding signal (z-score) (Gal(a1-4)GlcNAc): -0.675
glycan array binding signal (z-score) (Gal(a1-6)Glc): -0.741
